# Percent effect of library compounds

A: 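Whole-cell growth test on Mycobacterium tuberculosis, read after 3 days in glucose-containing 7H9 medium; the read-out is not stated. Tested at 50 µM. Higher reads as more growth inhibition (inferred: compounds with an IC50 in retests scored well above the rest). Size under these conditions: about 69,000 compounds, about 760 of them at 50% or above in at least one test.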
B: 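Phenotypic screen: M. tuberculosis growth, cholesterol and DPPC medium, 4 days; the read-out is not stated. Compounds at 50 µM. Higher reads as more growth inhibition (inferred: compounds with an IC50 in retests scored well above the rest). About 69,000 compounds were tested under these conditions; 0.54% (about 370) showed 50% or more at least once.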

Each number is a percent effect as filed. The record does not define 0% and 100%; most values in the screen are far below 50% and negative numbers occur (in some assays of this library far below -100). Compounds were drawn at random from those tested, without regard to their results. Two or more numbers in one place are separate tests of the same structure; such repeats can differ widely.

| # | compound | A | B |
|---|---|---|---|
| 1 | `Cc1oc(-c2nc(C#N)c(NC(C)C)o2)cc1S(=O)(=O)N1CCCC1` | -13.23% | -0.8364% |
| 2 | `CCCN1CCC(Cc2noc(-c3cc4cccnc4nc3C)n2)CC1` | 1.487% | -1.82% and -8.373% |
| 3 | `O=C(c1cc(-c2cccnc2)[nH]n1)N1CCCC(Cc2ccccn2)C1` (stereo not given) | -48.86% | -15.26% and -12.25% |
| 4 | `NC(=O)CCn1cc(CNCc2csc(N)n2)c2ccccc21` | -26.15% | -1.936% and -1.791% |
| 5 | `O=C1CN(c2ccc(C(=O)N3CCc4ccccc43)cn2)CCN1` | -22.36% | -12.51% |
| 6 | `Cc1nc(CN2CCCC(CCc3ccccc3F)C2)c[nH]1` (stereo not given) | 21.1% | 20.15% |
| 7 | `COCc1nc2n(n1)CCCC2Nc1nc(C2CC2)ns1` (stereo not given) | 6.332% | 17.59% |
| 8 | `CSc1[nH]nc(NC(=O)c2cccnc2)c1C#N` | 7.19% | -7.496% |
| 9 | `COC(=O)Cn1nc(-c2ccccc2F)ccc1=O` | -16.89% | -7.612% |
| 10 | `Cc1ccc(C(C)N(C)Cc2nc3c(cnn3C)c(=O)[nH]2)s1` (stereo not given) | -0.9698% | -5.656% |
| 11 | `CC(C)CN1CCNC(=O)C12CCN(S(=O)(=O)c1ccc(F)cc1)CC2` | 10.89% | 8.308% |
| 12 | `CC(C)Oc1cccc(C(O)CNC(=O)Nc2cccs2)c1` (stereo not given) | 37.74% | 31.6% and 13.15% |
| 13 | `CCOc1ccc(S(=O)(=O)NCc2cccnc2N(C)C)cc1` | 7.972% | 8.156% |
| 14 | `COc1ccc(Cl)cc1NCC(=O)NCCNc1ncccn1` | 0.6942% and -2.521% | 28.98% |
| 15 | `Cc1cc2nc(C(C)C)cc(N3CCSCC3)n2n1` | 15.1% | -6.098% |
| 16 | `Cn1nnnc1SCC1COc2ccccc2O1` (stereo not given) | -22.83% | -10.57% |
| 17 | `OC1(CNc2ccc(Br)cn2)CCC1` | -37.74% | -13.35% |
| 18 | `Cc1nc2c(N3CCN(CCO)CC3)nc(N)nc2n1C` | 10.65% and 12.58% | 19.59% |
| 19 | `O=C(c1ccc2nncn2c1)N1CCCCC1Cn1cccn1` (stereo not given) | -39.29% | -15.32% |
| 20 | `COc1ccc(CC(=O)N2CCCCC2Cn2cccn2)cc1OC` (stereo not given) | -1.311% and 13.07% | 1.845% |
| 21 | `O=C(NCCN1CCCC(CO)C1)c1ccc2scnc2c1` (stereo not given) | 2.548% | 5.113% |
| 22 | `COc1cccc(CCC2CCCN(C(=O)c3ccccn3)C2)c1` (stereo not given) | 23.52% | 15.83% |
| 23 | `COCCC1(C(=O)O)CCCN(C(=O)c2cc(F)ccc2OC)C1` (stereo not given) | 14.14% | -14.06% |
| 24 | `COCC[C@]1(O)CCN(C(=O)CCc2cnn(C)c2)C[C@H]1C` | -11.57% | -14.53% |
| 25 | `CCc1cc(N2CCC(NCCSc3nnnn3C)CC2)nc(C)n1` | -3.543% and -2.029% | 15.39% |
| 26 | `CCCS(=O)(=O)N1CCN(c2cc(-n3cnc(C)c3C)ncn2)CC1` | 0.5124% | -1.693% and -19.77% |
| 27 | `CN(CCCc1cnn(C)c1)C(=O)C1COc2ccccc2C1` (stereo not given) | -22.8% and 0.5366% | -30.32% |
| 28 | `Cc1cccc(CN2CCN(C(=O)c3ccc(C)[nH]c3=O)CC2)c1` | 34.07% | -1.578% |
| 29 | `CN(C)c1ncc(-c2cncn2CCc2ccc3c(c2)OCCO3)cn1.Cl` | 3.414% | 0.08841% |
| 30 | `Cc1oc(C(=O)O)cc1S(=O)(=O)Nc1cc(Br)ccc1F` | 11.14% | 1.367% |
| 31 | `CC(C)c1ccc(C(=O)N2CCOCC2CC(=O)c2ccco2)cn1` (stereo not given) | -1.628% | 2.86% |
| 32 | `COc1ccc(CN2CCC(O)CC2)c(OC)c1` | 17.41% | -7.557% |
| 33 | `COC(=O)Cn1c(=O)nc2n1C(=O)N(c1ccc(Br)cc1)C2` | 17.15% | 5.173% |
| 34 | `CCSc1cc(C(=O)NCCC(=O)Nc2ccccn2)ccn1` | 21.46% and 5.868% | -5.911% |
| 35 | `CN1CCN(C(CNC(=O)c2ccc(Cl)cc2F)c2cccs2)CC1` (stereo not given) | -26.3% | -7.113% |
| 36 | `CC(C)c1nc(CSc2nnc(-c3cccs3)n2CC(N)=O)no1` | 55.45% | 44.31% |
| 37 | `Cc1cnc(CN(Cc2ccc(Cl)s2)C2CCN(C)C2)o1` (stereo not given) | 7.681% | -22.37% |
| 38 | `CCN(CC)C(=O)CCCNC(=O)c1csc(NC2CC2)n1` | -2.287% and 9.643% | -1.248% |
| 39 | `COc1cc(CNC(=O)COC2CCCC2)ccc1O` | -1.316% | -5.372% |
| 40 | `CSc1nc2ccsc2c(=O)n1CC(=O)NC1CCCC1` | 44.99% | 41.04% |
| 41 | `Cn1c(CN2CCOCC2)cc(=O)c(O)c1CN1CCOCC1` | 14.13% | 14.41% |
| 42 | `Cc1ccc2cccc(Oc3nc(C)c(C(=O)O)s3)c2n1` | -1.819% | -10.54% |
| 43 | `CN(C)c1cc(CNC(=O)c2ccc(F)cc2)ccn1` | 0.1943% | 10.99% |
| 44 | `[H][C@]12CC[C@]([H])(CN(Cc3cc(C(C)(C)C)[nH]n3)C1)N(Cc1ccccn1)C2` | 6.828% | 9.614% |
| 45 | `O=C(NS(=O)(=O)Cc1ccc(F)cc1)C1CCOc2ccccc21` (stereo not given) | -8.047% | 3.339% |
| 46 | `NS(=O)(=O)CCNC(=O)c1nnn(-c2ccc(F)cc2)c1C1CC1` | 31.73% | -1.557% and 8.692% |
| 47 | `Nc1cc(-c2cc(O)cc(C(=O)O)c2)c2cc[nH]c2n1` | 3.201% | 1.042% |
| 48 | `CN(C)C(=O)COCC1CN(Cc2ccoc2)Cc2ncn(C)c21.O=C(O)C(F)(F)F.O=C(O)C(F)(F)F` (stereo not given) | -21.53% | -10.05% |
| 49 | `CCc1cnc(C)nc1NCCN1CCCCCC1` | -8.451% | -17.45% |
| 50 | `CN1CC2(CCN(C(=O)COc3ccc(Cl)cc3Cl)CC2)OC1=O` | -7.183% | -3.569% |

The first 3 entries again:

| compound | A | B |
|---|---|---|
| `Cc1oc(-c2nc(C#N)c(NC(C)C)o2)cc1S(=O)(=O)N1CCCC1` | -13.23% | -0.8364% |
| `CCCN1CCC(Cc2noc(-c3cc4cccnc4nc3C)n2)CC1` | 1.487% | -1.82% and -8.373% |
| `O=C(c1cc(-c2cccnc2)[nH]n1)N1CCCC(Cc2ccccn2)C1` (stereo not given) | -48.86% | -15.26% and -12.25% |

Source: ChEMBL document CHEMBL3988442, “University of Dundee, Small-Polar-MMV Screening Library” (2021).